# PubChem BioAssay AID1259425 – University of Nebraska Medical Center | 2018
# Screen: 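Find knockdowns that reproduce the gene expression pattern seen when KSR1 is lost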 (primary screen)
# Cells: HCT116 human colon cancer cells
# Reagent: siRNA pool against human genes, 50 nM siRNA
# Measured: 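After 50 nM siRNA pool, branched-DNA assay measures six marker transcripts per well, minus blank, normalised to the geometric mean of two housekeeping transcripts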
# Reading the numbers: BNIP3L mRNA: higher = more BNIP3L transcript after knockdown
# The whole screen tested about 14,000 reagents; below is a part drawn at random. A reagent listed more than once was tested more than once; the source does not tell the runs apart. Not all columns of the deposit are shown. No sequences are given here. Not stated in the record: the time to read-out.
Gene,PubChem SID,"BNIP3L mRNA, set 1"
SPG7 (GeneID 6687),SID363994260,0.0785
SPG7 (GeneID 6687),SID363994260,0.0776
SPG7 (GeneID 6687),SID363994260,0.0733
APBB1 (GeneID 322),SID363992455,0.192
ANXA11 (GeneID 311),SID363992449,0.0878
DEPTOR (GeneID 64798),SID364002555,0.0867
P2RY8 (GeneID 286530),SID364004905,0.197
LHX3 (GeneID 8022),SID363998936,0.101
SERPIND1 (GeneID 3053),SID363991521,0.152
TCP11 (GeneID 6954),SID364001175,0.125
ZFYVE1 (GeneID 53349),SID364002135,0.131
CRISP2 (GeneID 7180),SID363994415,0.164
CLCA4 (GeneID 22802),SID363998075,0.127
MED1 (GeneID 5469),SID363995731,0.0735
ST8SIA5 (GeneID 29906),SID363998421,0.117
USP28 (GeneID 57646),SID364001882,0.0559
HSP90AA2P (GeneID 3324),SID364005255,0.0743
CDH5 (GeneID 1003),SID363993014,0.16
NFE2L2 (GeneID 4780),SID363996993,0.0772
JAG2 (GeneID 3714),SID363993426,0.135
RGS4 (GeneID 5999),SID363996508,0.136
AHSP (GeneID 51327),SID364000253,0.156
AHSP (GeneID 51327),SID364000253,0.114
TMEM158 (GeneID 25907),SID363999499,0.185
KCNJ6 (GeneID 3763),SID363993440,0.119
BCAP31 (GeneID 10134),SID363996629,0.164
SLC22A16 (GeneID 85413),SID364004330,0.136
PRRG4 (GeneID 79056),SID364002734,0.151
TXNL1 (GeneID 9352),SID363995742,0.0596
PON2 (GeneID 5445),SID363991637,0.0592
CCNF (GeneID 899),SID363992980,0.146
GTF2A1 (GeneID 2957),SID363999682,0.0747
MIR9-1HG (GeneID 10485),SID363997181,0.135
PKNOX2 (GeneID 63876),SID364002298,0.101
FN1 (GeneID 2335),SID363993236,0.113
CHCHD6 (GeneID 84303),SID364003927,0.181
RNF146 (GeneID 81847),SID364003530,0.0702
CDON (GeneID 50937),SID364000286,0.111
PRODH2 (GeneID 58510),SID364002115,0.0777
KLK11 (GeneID 11012),SID363997617,0.231
PLP2 (GeneID 5355),SID363993836,0.198
SLC38A1 (GeneID 81539),SID364003404,0.193
ZNF490 (GeneID 57474),SID364001793,0.106
ZNF137P (GeneID 7696),SID363994540,0.0542
GPD1 (GeneID 2819),SID363996196,0.0277
PI4KA (GeneID 5297),SID363993818,0.21
SLC4A11 (GeneID 83959),SID364003754,0.192
PLP1 (GeneID 5354),SID363991856,0.0696
CD164 (GeneID 8763),SID363996868,0.109
BCL10 (GeneID 8915),SID363994977,0.061
KLHDC8A (GeneID 55220),SID364000873,0.112
GALT (GeneID 2592),SID363991491,0.208
NEFH (GeneID 4744),SID364001992,0.161
RAPSN (GeneID 5913),SID363995993,0.0898
BEST1 (GeneID 7439),SID363995187,0.168
MVP (GeneID 9961),SID363996050,0.198
TSPYL4 (GeneID 23270),SID364002167,0.106
GALNT3 (GeneID 2591),SID363995461,0.0824
RETREG1 (GeneID 54463),SID364001319,0.217
RAB26 (GeneID 25837),SID364005399,0.223
CHGA (GeneID 1113),SID363992559,0.105
AMFR (GeneID 267),SID363992436,0.143
POFUT2 (GeneID 23275),SID363999370,0.0689

10 entries from above, ordered by “BNIP3L mRNA, set 1”, lowest first.
Gene,PubChem SID,"BNIP3L mRNA, set 1"
GPD1 (GeneID 2819),SID363996196,0.0277
ZNF137P (GeneID 7696),SID363994540,0.0542
BCL10 (GeneID 8915),SID363994977,0.061
PLP1 (GeneID 5354),SID363991856,0.0696
ZNF490 (GeneID 57474),SID364001793,0.106
CD164 (GeneID 8763),SID363996868,0.109
KLHDC8A (GeneID 55220),SID364000873,0.112
SLC4A11 (GeneID 83959),SID364003754,0.192
SLC38A1 (GeneID 81539),SID364003404,0.193
PI4KA (GeneID 5297),SID363993818,0.21
